According to patent publication US20240264164A1, “DETERGENTS AND METHODS” (OXFORD UNIVERSITY INNOVATION LIMITED, priority 2021, published 2024):

Tested on: TSPO, AmtB and AqpZ membrane proteins (protein-phospholipid complexes)
Assay: Phospholipid delipidation at low detergent concentration, nESI mass spectrometry
Details: detergent exchange from DDM, 2×CAC of detergent, nESI MS

Row | SMILES | degree of phospholipid delipidation of membrane proteins
1 | CCCCCCCCCCCCOC(COCCOCCOCCOCCO)COCC(O)CO (centres unmarked) [detergent 3] | less delipidating towards phospholipids than detergent 1
2 | CCCCCCCCCCCCOC(COCCOCCOCCOCCO)COCCOC1OC(CO)C(O)C(O)C1O (centres unmarked) [detergent 5] | less delipidating towards phospholipids than either OG or C8E4
